Assay results as given in article PMC9444042 (Neurotoxicology, 2021).

Assays:
[1] = system: iPSC-derived human cortical glutamatergic neurons; experiment: cells; assay type: cell-based; conditions: Neuron, 48 h, read-out: IC50, neurite outgrowth inhibition
[2] = system: iPSC-derived human spinal motor neurons; experiment: cells; assay type: cell-based; conditions: Neuron, 48 h, read-out: IC50, neurite outgrowth inhibition

## COc1cc2c(c(OC)c1OC)-c1ccc(OC)c(=O)cc1[C@@H](NC(C)=O)CC2 [Colchicine]
[1]
  IC50: 21.8 nM
[2]
  IC50: 55.8 nM
